In US20240287184A1 one finds binding data, which are given here for three molecules.

The chains behind the UniProt entries cited, without tags or fusion partners. Residues count along the entry.
UniProt Q15116, residues 25-167: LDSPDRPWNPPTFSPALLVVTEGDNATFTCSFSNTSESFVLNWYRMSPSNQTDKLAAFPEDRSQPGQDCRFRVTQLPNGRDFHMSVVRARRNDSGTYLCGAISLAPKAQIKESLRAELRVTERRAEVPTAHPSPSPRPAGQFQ

In assay [1] the target is PD-1-his (ACRO) recombinant protein (UniProt Q15116). Put plainly: BLI (ForteBio Octet), compared with PD-1-112-C2 and Opdivo.
The target is the same in assay [2]. Put plainly: BLI (ForteBio Octet), PD-1-his loaded on sensor.

Results are given in words; binding and its absence hold for the method and conditions named. Some binding calls cover weakened binding; strength is not graded here.

B1: anti-PD-1 humanized antibody c22 (antibody, V domains shown)
VH: QVQLVQSGAEVKKPGASVKVSCKASGYTFTTYYMYWVRQAPGQGLEWMGGINPSNGGTNFNEKFKSRVTMTVDKSTSTAYMELSSLRSEDTAVYYCTRRDSNYDGGFDYWGQGTTVTVSS
VL: DIQLTQSPSSLSASVGDRATITCRASKSVSTSGYSYMHWYQQKPGKAPKLLIYLAYHLESGVPSRFSGSGSGTDFTLTISSVQPEDFATYYCQHSWELPITFGQGTKLEIKR
Take B1: the binding entry in assay [1] and in assay [2] was “binds” in each case.

B2: anti-PD-1 humanized antibody c53 (antibody, V domains shown)
VH: QVQLVQSGAEVKKPGASVKVSCKASGYTFTTYYMYWVRQAPGQGLEWMGGINPSNGGTNYAQKFQGRATMTVDTSTSTAYMELSSLRSEDTAVYYCTRRDSNYDGGFDYWGQGTTVTVSS
VL: DIQMTQSPSSLSASVGDRVTITCRASKSVSTSGYSYMHWYQQKPGKAPKLLIYLAYHLESGVPSRFSGSGSGTDFTLTISSLQPEDFATYYCQHSWELPITFGQGTKLEIKR
On to B2, for which the binding entry in assay [1] and in assay [2] was “binds” throughout.

B3: anti-PD-1 humanized antibody c43 (antibody, V domains shown)
VH: QVQLVQSGAEVKKPGASVKVSCKASGYTFTTYYMYWVRQAPGQGLEWIGGINPSNGGTNYAEKFKGRVTLTVDTSTSTAYMELSSLRSEDTAVYYCTRRDSNYDGGFDYWGQGTTVTVSS
VL: DIQMTQSPSSLSASVGDRVTITCRASKSVSTSGYSYMHWYQQKPGKAPKLLIYLAYHLESGVPSRFSGSGSGTDFTLTISSLQPEDFATYYCQHSWELPITFGQGTKLEIKR
Regarding B3, the binding entry in assay [1] and in assay [2] was “binds” in each case.
